# Test results published in patent US6987093B2 (priority 2001, dated 2006).
# At least one structure is not confirmed: it was looked up by name or label, or the drawing left a doubt. Some of these results come from one statement about several compounds together.
# System: S. pneumoniae isolates
# Assay: Susceptibility (MIC) testing of trial S. pneumoniae isolates with PCR of resistance mechanism
# Format: cell-based, Streptococcus pneumoniae
# Description: Samples of middle ear fluid were split for storage at a central laboratory and cultured locally. All pathogens isolated locally were subcultured and sent to a central laboratory for confirmation and susceptibility testing, performed by Kirby-Bauer disk-diffusion or MIC testing according to NCCLS standards.
# Polymerase chain reaction (PCR) determination of resistance mechanisms in all the azithromycin-resistant pneumococci was done.
# Cultures were taken for antimicrobial susceptibility testing and bacterial species were identified. Current NCCLS approved breakpoints for MICs and zone sizes were applied to all data irrespective of the breakpoint in use at the time of the study. The isolates from the clinical studies were sent to central laboratories for identification and susceptibility determination. The methods for agar diffusion disk tests are those recommended by NCCLS.
# The susceptibility breakpoints for azithromycin were defined as follows: […]
compound,measurement,setting,value
CCC[C@@H]1C[C@@H](C(=O)N[C@@H]([C@H]2O[C@H](SC)[C@H](O)[C@@H](O)[C@H]2O)[C@H](C)Cl)N(C)C1 [clindamycin],clindamycin MIC,S. pneumoniae strains with erm(B),> 256 µg/mL
same,susceptibility to clindamycin,five isolates with erm B gene,resistant
same,susceptibility to clindamycin,seven isolates with mef A gene,sensitive
